This is an account of results in paper PMC11762313.

Chains of the proteins cited; added tags and fusions are not shown.
UniProt Q92793: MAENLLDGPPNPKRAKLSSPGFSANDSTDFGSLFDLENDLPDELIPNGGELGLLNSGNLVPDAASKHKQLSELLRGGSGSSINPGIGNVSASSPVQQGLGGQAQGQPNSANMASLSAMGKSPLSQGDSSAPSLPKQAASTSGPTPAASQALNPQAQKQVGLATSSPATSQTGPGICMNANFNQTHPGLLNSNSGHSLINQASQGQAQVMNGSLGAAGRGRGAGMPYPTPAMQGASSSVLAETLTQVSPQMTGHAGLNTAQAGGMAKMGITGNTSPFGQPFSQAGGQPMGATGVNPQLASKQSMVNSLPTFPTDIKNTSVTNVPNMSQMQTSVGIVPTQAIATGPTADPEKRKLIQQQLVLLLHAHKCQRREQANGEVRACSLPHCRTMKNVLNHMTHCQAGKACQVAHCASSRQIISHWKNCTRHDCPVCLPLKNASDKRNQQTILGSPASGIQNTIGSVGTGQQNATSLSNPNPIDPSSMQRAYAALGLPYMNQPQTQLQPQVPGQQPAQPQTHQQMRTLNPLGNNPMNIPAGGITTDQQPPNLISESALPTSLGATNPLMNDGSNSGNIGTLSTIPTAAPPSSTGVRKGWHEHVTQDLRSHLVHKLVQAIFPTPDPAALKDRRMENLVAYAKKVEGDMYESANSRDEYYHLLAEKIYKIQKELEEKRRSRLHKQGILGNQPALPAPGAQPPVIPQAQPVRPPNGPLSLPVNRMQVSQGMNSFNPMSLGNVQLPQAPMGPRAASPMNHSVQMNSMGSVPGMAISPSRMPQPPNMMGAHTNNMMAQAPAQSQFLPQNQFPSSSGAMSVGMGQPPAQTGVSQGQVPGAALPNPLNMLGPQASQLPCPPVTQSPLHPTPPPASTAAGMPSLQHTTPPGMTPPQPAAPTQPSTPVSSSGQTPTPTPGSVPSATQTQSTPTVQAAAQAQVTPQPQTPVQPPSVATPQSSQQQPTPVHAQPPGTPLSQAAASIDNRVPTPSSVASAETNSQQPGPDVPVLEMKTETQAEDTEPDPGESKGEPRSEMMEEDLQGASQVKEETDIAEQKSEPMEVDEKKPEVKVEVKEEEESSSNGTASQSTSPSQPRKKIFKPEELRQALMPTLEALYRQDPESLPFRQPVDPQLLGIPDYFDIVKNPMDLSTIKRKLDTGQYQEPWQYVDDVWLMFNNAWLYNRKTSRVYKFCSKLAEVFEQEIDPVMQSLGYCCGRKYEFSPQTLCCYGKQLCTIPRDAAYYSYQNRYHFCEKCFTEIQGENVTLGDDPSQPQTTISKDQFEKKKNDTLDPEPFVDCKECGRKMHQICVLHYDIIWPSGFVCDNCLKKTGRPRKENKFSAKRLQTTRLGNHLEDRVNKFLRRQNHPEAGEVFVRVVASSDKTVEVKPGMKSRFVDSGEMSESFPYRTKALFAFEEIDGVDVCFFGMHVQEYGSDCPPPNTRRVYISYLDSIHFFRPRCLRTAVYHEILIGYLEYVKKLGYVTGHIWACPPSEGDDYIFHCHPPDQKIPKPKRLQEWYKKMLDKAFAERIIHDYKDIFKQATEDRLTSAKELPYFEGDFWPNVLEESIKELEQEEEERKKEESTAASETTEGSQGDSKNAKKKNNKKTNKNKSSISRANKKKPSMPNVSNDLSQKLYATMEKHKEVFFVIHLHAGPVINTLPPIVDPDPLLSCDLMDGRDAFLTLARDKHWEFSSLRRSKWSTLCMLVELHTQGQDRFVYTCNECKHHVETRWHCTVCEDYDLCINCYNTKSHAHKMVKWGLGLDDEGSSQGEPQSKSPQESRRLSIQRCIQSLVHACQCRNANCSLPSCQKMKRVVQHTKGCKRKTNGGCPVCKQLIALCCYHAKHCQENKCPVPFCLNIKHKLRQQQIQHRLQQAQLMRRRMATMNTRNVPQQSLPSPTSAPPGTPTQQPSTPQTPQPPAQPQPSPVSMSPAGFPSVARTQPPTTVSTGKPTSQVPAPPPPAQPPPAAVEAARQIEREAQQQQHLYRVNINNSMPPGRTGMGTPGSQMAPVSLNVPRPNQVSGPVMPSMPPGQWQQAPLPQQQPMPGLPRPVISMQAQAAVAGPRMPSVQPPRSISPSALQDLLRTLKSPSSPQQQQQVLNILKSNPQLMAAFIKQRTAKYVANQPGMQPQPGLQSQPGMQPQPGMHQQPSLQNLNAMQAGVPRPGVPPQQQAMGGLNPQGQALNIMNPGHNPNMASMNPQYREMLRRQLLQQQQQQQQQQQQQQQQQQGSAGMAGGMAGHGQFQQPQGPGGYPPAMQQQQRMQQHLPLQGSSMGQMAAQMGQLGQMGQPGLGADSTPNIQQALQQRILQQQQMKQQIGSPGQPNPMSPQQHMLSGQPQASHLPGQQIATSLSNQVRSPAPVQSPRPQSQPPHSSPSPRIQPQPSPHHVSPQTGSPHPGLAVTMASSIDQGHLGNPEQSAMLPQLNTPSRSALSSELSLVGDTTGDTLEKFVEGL

The target of assay [1] is T1, CLYBL in 293T cells (co-IP with CBP) (UniProt Q8N0X4).
T1 sequence: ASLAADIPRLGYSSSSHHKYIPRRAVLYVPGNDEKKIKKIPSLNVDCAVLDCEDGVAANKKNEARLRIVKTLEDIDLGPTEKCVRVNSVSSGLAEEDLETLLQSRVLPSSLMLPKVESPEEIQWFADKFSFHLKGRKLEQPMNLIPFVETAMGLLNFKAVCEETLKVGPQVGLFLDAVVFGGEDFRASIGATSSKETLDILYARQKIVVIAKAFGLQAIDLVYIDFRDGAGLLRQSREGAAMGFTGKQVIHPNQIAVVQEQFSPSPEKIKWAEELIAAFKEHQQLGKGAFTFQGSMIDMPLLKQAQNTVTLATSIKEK
Kind of assay: co-IP; CBP and CLYBL in 293T cell lysate; endogenous or transfected not stated; IP lysis buffer, beads 12 h at 4 °C; bait not stated.

Assay [2] concerns the target T2, CLYBL, endogenous in 293T cells (human (endogenous in HEK293T)) (UniProt Q8N0X4).
T2 sequence: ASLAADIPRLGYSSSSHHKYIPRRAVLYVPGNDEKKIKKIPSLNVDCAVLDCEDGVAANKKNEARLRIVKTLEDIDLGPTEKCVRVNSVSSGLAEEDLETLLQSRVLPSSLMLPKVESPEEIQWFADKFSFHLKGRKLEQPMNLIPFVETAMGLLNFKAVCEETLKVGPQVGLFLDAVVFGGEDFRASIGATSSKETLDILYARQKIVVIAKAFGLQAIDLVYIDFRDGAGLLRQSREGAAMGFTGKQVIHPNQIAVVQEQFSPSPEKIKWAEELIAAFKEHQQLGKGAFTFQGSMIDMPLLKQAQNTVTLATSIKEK
Kind of assay: co-IP; endogenous proteins in 293T cell lysate; IP lysis buffer, antibody 3 h, then protein A/G magnetic beads 12 h at 4 °C; bait not stated.

These are yes or no findings as the source states them, for the method shown. In cells and extracts the contact can be indirect. Some entries that bind do so weakly or less than the wild type.

Take “CBP in 293T cells (from UniProt Q92793 1-2442)”: in assay [1], the binding entry is on record as “binds”.

B1: SIRT2, endogenous in 293T cells (protein, UniProt Q8IXJ6 1-389)
chain: MAEPDPSHPLETQAGKVQEAQDSDSDSEGGAAGGEADMDFLRNLFSQTLSLGSQKERLLDELTLEGVARYMQSERCRRVICLVGAGISTSAGIPDFRSPSTGLYDNLEKYHLPYPEAIFEISYFKKHPEPFFALAKELYPGQFKPTICHYFMRLLKDKGLLLRCYTQNIDTLERIAGLEQEDLVEAHGTFYTSHCVSASCRHEYPLSWMKEKIFSEVTPKCEDCQSLVKPDIVFFGESLPARFFSCMQSDFLKVDLLLVMGTSLQVQPFASLISKAPLSTPRLLINKEKAGQSDPFLGMIMGLGGGMDFDSKKAYRDVAWLGECDQGCLALAELLGWKKELEDLVRREHASIDAQSGAGVPNPSTSASPKKSPPPAKDEARTTEREKPQ
Take B1: the binding result in assay [2] is “binds”.
